Measurements published in publication PMC7064499.

Sequences of proteins named here, by UniProt entry; tags and fusion partners are left off. A change or cut given only in a name is not applied to a line headed by its entry.
UniProt Q48GF5: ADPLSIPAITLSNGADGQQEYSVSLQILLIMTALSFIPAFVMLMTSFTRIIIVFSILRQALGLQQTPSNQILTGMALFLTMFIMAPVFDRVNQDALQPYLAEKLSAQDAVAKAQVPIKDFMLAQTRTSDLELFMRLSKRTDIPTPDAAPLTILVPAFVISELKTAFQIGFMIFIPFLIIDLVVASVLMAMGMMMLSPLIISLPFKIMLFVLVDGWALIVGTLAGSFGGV

Columns and labels:
[1] = molecular target: FliP, V. mimicus polar flagellum (Vibrio mimicus (strain DSM 19130)); assay: cryo-EM structure; both purified
[2] = molecular target: FliP, P. savastanoi (Pseudomonas savastanoi pv. phaseolicola 1448A (DSM 21482)) (UniProt Q48GF5); assay: cryo-EM structure; both purified

Binder | binding [1] | binding [2]
FliR, V. mimicus polar flagellum (protein, UniProt A0A2J9VIH1 1-258) MAITFAELSAILGQLWWPFFRVGAVFISMPFFGDALIPIWVRSLLALAIVVITAPLIPTMPAVDLFSMTSLFLAFEQVIWGIIFGLILHMLFTVFAMLGQIVSLQMGLGMAMMNDPVNGISVAVLGRLFLIFSTLLFLALEGHLLVIDVLIQSFVIWPVGSGITSLSLQGVINAFGWMFASSLALALPAIISMLLANISFGVMNRAAPSLNIYALGFPMTMLLGLFSVLISVSGIPDRYTDLVHNTLQYLNNFILGGV | binds | –
FliR, P. savastanoi (protein, UniProt Q48GF7 1-258) MLALTDIQISTWVASFMLPMFRIVALLMTMPVIGTTLVPRRVRLYLAFAITVVVAPALPAMPPVQALDLSGLLLIGEQIIIGAGMGLSLQMFFHIFVIAGQIISTQMGMGFASMVDPTNGVSSAVIGQFFTMLVTLLFLFMNGHLVVLEVLVESFTTMPVGGGLLVNNFWELANGLGWALSSGLRLVLPAITALLIINIAFGVMTRAAPQLNIFSIGFPLTLVLGMVILWMSMGDILNQYQPIASQALQSLRDMVRAR | – | binds

No constants are given. Whether binding was seen depends on the method and setting. Binding can be weak; no strength is given. For some assays here: Sequences can lack the tags named with a protein.
